At least one compound was matched to its structure with a doubt left. Positions of bridges follow the written chain, without caps; N, C: chain ends. Non-standard residues stand in square brackets, D forms with d. Residues, ends and D or L forms follow the SMILES beside them. Chains are numbered I, II in the order given.
Key:
[1] = test system: N-acetyl-PGP activated PMN; assay: Polarization assay: inhibition of N-acetyl-PGP activated PMN polarization; format: cell-based, human; conditions: 800 μM N-acetyl-PGP, preliminary study
Protocol: Following the technique of Ferrante and Thong^13, polymorphonuclear leukocytes were isolated from fresh heparinized human whole blood by centrifugation on Hypaque-Ficoll (density=1.114) according to a described method^14. […] Purified polymorphonuclear leukocytes were used in the polarization assay. All incubation mixtures were maintained between an osmolality of 280 to 320, a pH range of 7.2 to 7.6, 15 mM phosphate buffer, and 50 μM Ca^2+ and 50 μM Mg^2+.
The polarization assay^15 was performed in a blind fashion. This assay was used to determine the polymorphonuclear leukocyte response to chemoattractants and inhibitors by measuring the frequency and degree of cellular shape change. Briefly, 2×10^5 polymorphonuclear leukocytes were mixed with preincubated synthetic complementary peptides and chemoattractants in a reaction chamber (total volume=100 μl) at 37° C. for 5 min. At the end of the incubation period an aliquot was collected and mixed with an equal volume of 4% glutaraldehyde for microscopic observation. The remaining volume of each cell suspension was immediately centrifuged at 15,000× g for 5 seconds to remove cells. […] Polymorphonuclear leukocytes in each sample were observed microscopically and assigned scores of 0 (resting=spherical cell with a smooth membrane), 1 (activated=irregular cell with uneven membranes) or 2 (polarized=cell length≧width×2). Scores of 100 polymorphonuclear leukocytes for each sample were added to produce a polarization index. A dose response was performed for each chemoattractant. A concentration of each chemoattractant was chosen from the linear portion of each dose response curve and used as the positive control. Negative control samples consisted of polymorphonuclear leukocytes in HBSS only. […] The Student's t-test (unpaired) was used to analyze the differences in the mean polarization response between polymorphonuclear leukocytes activated with the chemoattractant in the absence or presence of complementary peptides.

[2] = test system: N-methyl-PGP induced polymorphonuclear leukocyte polarization; assay: Polarization assay: inhibition of N-methyl-PGP induced PMN polarization; format: cell-based, human; conditions: 1 mM N-methyl-PGP

## C[C@H](NC(=O)[C@H](CCCCNC(=O)[C@H](CCCCNC(=O)CNC(=O)CNC(=O)[C@@H](CCCNC(=N)N)NC(=O)[C@H](NC(=O)[C@H](N)CCCNC(=N)N)[C@H](C)O)NC(=O)CNC(=O)CNC(=O)[C@@H](CCCNC(=N)N)NC(=O)[C@H](NC(=O)[C@H](N)CCCNC(=N)N)[C@H](C)O)NC(=O)[C@H](CCCCNC(=O)CNC(=O)CNC(=O)[C@@H](CCCNC(=N)N)NC(=O)[C@H](NC(=O)[C@H](N)CCCNC(=N)N)[C@H](C)O)NC(=O)CNC(=O)CNC(=O)[C@@H](CCCNC(=N)N)NC(=O)[C@H](NC(=O)[C@H](N)CCCNC(=N)N)[C@H](C)O)C(N)=O [D-RTR tetramer, ((H2N-d-Arg-d-Thr-d-Arg-Gly-Gly)2-Lys)2-Lys-Ala-CONH2] (I: H-[dR][dT][dR]GGKKA-NH2 / II: H-[dR][dT][dR]GGK / III: H-[dR][dT][dR]GG / IV: H-[dR][dT][dR]GG; amide I:6-IV:C, I:7-II:C, II:6-III:C)
[1]; 100 nM peptide
  inhibition of polarization (mean ±SD): 37%±35%
[1]; 1 μM peptide
  inhibition of polarization (mean ±SD): 65%±26%
[1]; 10 μM peptide
  inhibition of polarization (mean ±SD): 92%±6%
[2]; 1-10 μM peptide
  inhibition of polarization (mean ±SD): 14%±10%
[2]; 40-100 μM peptide
  inhibition of polarization (mean ±SD): 45%±7%
[2]; 200-800 μM peptide
  inhibition of polarization: 100%

From patent US20020107202A1, “Synthetic complementary peptides and ophthalmologic uses thereof” (priority 1999, published 2002)
